Measurements from the supplement of paper PMC12873370.
Several values for one entry are separate records, joined by “and”; a condition that tells them apart may be missing. Equal values may be shown once. The list shows a part of the results. Single values are uncertain, as repeats are few or missing.

The compounds below were run on MEPP (mouse ovarian epithelium Trp53/Pten KO) (assay: cell viability relative to untreated (fraction); higher = less growth inhibition). Settings: 5 µM; 3 days.

SMILES | cell viability
COc1cc(O)cc(O)c1C(=O)/C=C/c1ccccc1 | 0.864
C=C1C(=O)O[C@@H]2C[C@@]3(C)CCC[C@H](C)C3=C[C@H]12 | 1.17
CC[C@H]1OC(=O)[C@@](C)(F)C(=O)[C@H](C)[C@@H](O[C@@H]2O[C@H](C)C[C@H](N(C)C)[C@H]2O)[C@](C)(OC)C[C@@H](C)C(=O)[C@H](C)[C@H]2N(CCCCn3cc(-c4cccc(N)c4)nn3)C(=O)O[C@]12C | 0.902
CCCCCCCCCCCCCCCC(=O)O | 0.913
C[C@@H]1O[C@@H](O[C@H]2[C@H](Oc3cc(O)c4c(=O)cc(-c5ccc(O)cc5)oc4c3)O[C@H](CO)[C@@H](O)[C@@H]2O)[C@H](O)[C@H](O)[C@H]1O | 0.98
C/C=C/C=C/C(=O)O | 0.805
C[C@]12C=CC(=O)C=C1CC[C@@H]1[C@@H]2C(=O)C[C@@]2(C)[C@H]1CC[C@]2(O)C(=O)CO | 0.826
O=C(O)/C=C/CCCCCCCO | 1.15
CC1=C(/C=C/C(C)=C/C=C/C(C)=C\C(=O)O)C(C)(C)CCC1 | 1.03
O=C(O)C(O)c1ccccc1 (stereo not given) | 1.15
COc1cc(-c2coc3cc4c(c(OC)c3c2=O)OCO4)cc(OC)c1OC | 1.48
C/C(=C\CNc1ncnc2nc[nH]c12)CO | 0.977
C[C@H](CCC(=O)O)[C@H]1CC[C@H]2[C@@H]3CC[C@@H]4C[C@H](O)CC[C@]4(C)[C@H]3CC[C@]12C | 0.969
C[C@@H](O)[C@H]1C(=O)N2C(C(=O)[O-])=C(SC3Cn4cnc[n+]4C3)[C@H](C)[C@H]12 (stereo not given in full) | 1.11
NC(=O)c1ccc[n+]([C@@H]2O[C@H](CO)[C@@H](O)[C@H]2O)c1 | 0.97
C[C@@H]1CC[C@H]2C(C)(C)[C@H]3C[C@@]12CC[C@@]3(C)O | 1.03
O=C(O)c1ccoc1 | 0.968
CCCCC/C=C\C/C=C\C/C=C\C/C=C\CCCC(=O)O | 1
Nc1nc(=O)[nH]cc1F | 1.05
O=Cc1ccc(OC2OC(CO)C(O)C(O)C2O)cc1 (stereo not given) | 0.934

Reformatted: two of the compounds above
SMILES	cell viability
CC1=C(/C=C/C(C)=C/C=C/C(C)=C\C(=O)O)C(C)(C)CCC1	1.03
O=C(O)C(O)c1ccccc1 (stereo not given)	1.15

Next structures follow.

SMILES | cell viability
CCCCCOc1ccc(-c2ccc(-c3ccc(C(=O)N[C@H]4C[C@@H](O)[C@@H](O)NC(=O)[C@@H]5[C@@H](O)[C@@H](C)CN5C(=O)[C@H]([C@@H](C)O)NC(=O)[C@H]([C@H](O)[C@@H](O)c5ccc(O)cc5)NC(=O)[C@@H]5C[C@@H](O)CN5C(=O)[C@H]([C@@H](C)O)NC4=O)cc3)cc2)cc1 | 0.913
O=C1O[C@H]([C@H](O)CO)C([O-])=C1O.[Na+] | 0.987
NC(CO)C(=O)O (stereo not given) | 1.52
CC1(C)S[C@@H]2[C@H](NC(=O)[C@H](C(=O)O)c3ccsc3)C(=O)N2[C@H]1C(=O)O | 0.971
CC(C)(CO)C(O)C(=O)NCCC(=O)O (stereo not given) | 0.85
COc1ccccc1O | 1.12
COC(=O)[C@H]1[C@H]2C[C@@H]3c4[nH]c5cc(OC)ccc5c4CCN3C[C@H]2C[C@@H](OC(=O)c2cc(OC)c(OC)c(OC)c2)[C@@H]1OC | 0.778 and 1.1
C[C@H](C[C@H](O)[C@@H](O)C(C)(C)O)C1=C2C[C@H](O)[C@H]3[C@@]4(C)CCC(=O)C(C)(C)[C@@H]4CC[C@]3(C)[C@@]2(C)CC1 | 1.16
C/C=C(\C)C(=O)O | 0.975
C=C(C)C1CC=C(/C=N/O)CC1 (stereo not given) | 0.907
COc1ccc(-c2cc(=O)c3c(O)c(OC)c(O)c(OC)c3o2)cc1 | 1.29
CCCC1CC(C(=O)NC(C(C)Cl)C2OC(SC)C(O)C(O)C2O)N(C)C1 (stereo not given) | 1.2
COc1ccc2cc3[n+](cc2c1O)CCc1cc2c(cc1-3)OCO2 | 1.23
CC(C)[C@H](N)C(=O)OCCOCn1cnc2c(=O)nc(N)[nH]c21 | 0.809
c1cnc2cc3c(cc2n1)[C@@H]1CNC[C@H]3C1 | 0.999
C[N+](C)(C)CC(O)CC(=O)[O-] (stereo not given) | 0.948
OCc1ccc(O[C@@H]2O[C@H](CO)[C@@H](O)[C@H](O)[C@H]2O)cc1 | 1.05
O=C([O-])CC(O)(CC(=O)[O-])C(=O)[O-].O=C([O-])CC(O)(CC(=O)[O-])C(=O)[O-].[Bi+3].[K+].[K+].[K+] | 0.961
CC(C)C(=O)C(=O)O | 0.868
N[C@@H](Cc1cc(I)c(Oc2cc(I)c(O)c(I)c2)c(I)c1)C(=O)O | 1.1 and 1.11
